The results in this text go back to patent publication US20040266862A1, “Method of improving animal tissue quality by supplementing the animal diet with mixed tocotrienols” (priority 2003, published 2004).

The subject of this series is swine. Put plainly: 2002 swine feed test: fat and TBARS content of raw ground pork. It is filed as in vivo. As to conditions: raw ground pork (bellies). The source says:
Applicants conducted a second swine feeding trial to further determine the effects on meat quality of supplementation of a swine diet with alpha-tocopherol (AT), gamma-tocopherol (GT) or mixed tocotrienols (MT). Seventy-two barrows (˜75 lbs.) were transported to the Pioneer Livestock Nutrition Center (PLNC) and randomly placed into individual pens with water and feed provided ad libitum. The pigs received a common diet for seven days. On the eighth day the pigs were weighed individually and a uniform group of sixty pigs with an average body weight of about 75 pounds was selected. The pigs were randomly assigned one of five dietary treatments with 12 pigs per treatment. The feeding trial was initiated on Mar. 12, 2002 and ended on Jun. 19, 2002. The pigs were fed a corn-soybean meal diet formulated to provide adequate levels of all nutrients. In addition, one of five dietary treatments was assigned to each group: control, 300 ppm AT, 450 ppm GT, 150 ppm MT, and 300 ppm MT. To each diet a corn oil premix and a ground corn premix were added with the corn oil premix as a carrier for the supplemental tocopherols and the ground corn premix as the carrier for the MT. The MT supplement was obtained commercially from Fuji Chemical Industries (U.S.A.) Inc. of Robbinsville, N.J., and contained 7.5% alpha-, 12.3% gamma- and 3.0% delta-tocotrienol, as well as 7.2% alpha-tocopherol. […]

Turning to `Cc1c(C)c2c(c(C)c1O)CC[C@@](C)(CCC[C@H](C)CCC[C@H](C)CCCC(C)C)O2` [AT, alpha-tocopherol], the “Fat, %” value (300 ppm in diet) was determined as 37.31%.

Regarding `Cc1c(O)cc2c(c1C)O[C@](C)(CCC[C@H](C)CCC[C@H](C)CCCC(C)C)CC2` [GT, gamma-tocopherol], where the note is “450 ppm in diet”, the “Fat, %” value amounted to 37.59%.
